Laboratory results: US20170007669A1, “PEPTIDE-MEDIATED DELIVERY OF ACTIVE AGENTS ACROSS THE BLOOD-BRAIN BARRIER” (Mayo Foundation for Medical Education and Research, priority 2015, published 2017)
Not every detail of the peptide structures is certain; ends, links or a residue may be inferred. Where no end group is shown, it is not given here.

Test system: Theiler's murine encephalomyelitis virus infection of the central nervous system
Experiment: Theiler's murine encephalomyelitis virus infection of the central nervous system by femoral vein injection with K16ApoE carrier peptide
Format: in vivo, C57Bl/6J mice
Details: FIG. 12

“KKKKKKKKKKKKKKKKLRVRLASHLRKLRKRLLRDA [K16ApoE, KKKKKKKKKKKKKKKKLRVRLASHLRKLRKRLLRDA]” was tested, and the “immune cell (monocyte, neutrophil) count in brain tissues by flow cytometry” value was “Low monocyte count”.
